Experimental data published in paper PMC5302063, “In vivo mapping of a dynamic ribonucleoprotein granule interactome in early Drosophila embryos” (FEBS Open Bio, 2016).

By UniProt entry, the sequences of proteins in these tests, tags left out.
UniProt O62619: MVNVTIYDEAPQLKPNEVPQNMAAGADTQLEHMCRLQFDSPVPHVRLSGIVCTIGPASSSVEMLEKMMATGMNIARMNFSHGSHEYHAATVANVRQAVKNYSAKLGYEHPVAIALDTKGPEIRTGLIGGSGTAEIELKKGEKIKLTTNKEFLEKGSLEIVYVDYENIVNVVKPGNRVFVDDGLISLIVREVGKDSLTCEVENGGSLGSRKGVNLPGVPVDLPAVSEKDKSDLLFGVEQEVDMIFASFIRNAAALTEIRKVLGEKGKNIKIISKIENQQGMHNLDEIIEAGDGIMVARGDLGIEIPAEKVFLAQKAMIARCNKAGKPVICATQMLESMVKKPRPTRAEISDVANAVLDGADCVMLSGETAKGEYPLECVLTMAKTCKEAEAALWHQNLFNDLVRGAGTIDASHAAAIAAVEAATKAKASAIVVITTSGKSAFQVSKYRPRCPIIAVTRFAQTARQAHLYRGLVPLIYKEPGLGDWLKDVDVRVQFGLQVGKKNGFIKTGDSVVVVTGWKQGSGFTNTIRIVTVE
UniProt P07487: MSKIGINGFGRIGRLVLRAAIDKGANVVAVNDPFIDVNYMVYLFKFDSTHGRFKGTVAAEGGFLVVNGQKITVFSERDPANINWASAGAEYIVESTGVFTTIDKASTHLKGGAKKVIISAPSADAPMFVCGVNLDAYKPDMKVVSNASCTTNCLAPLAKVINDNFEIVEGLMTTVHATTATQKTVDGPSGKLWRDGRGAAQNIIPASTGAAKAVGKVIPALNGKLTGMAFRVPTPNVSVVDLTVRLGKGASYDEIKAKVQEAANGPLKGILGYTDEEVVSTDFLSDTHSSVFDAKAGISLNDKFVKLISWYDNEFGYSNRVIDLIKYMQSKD
UniProt P37276: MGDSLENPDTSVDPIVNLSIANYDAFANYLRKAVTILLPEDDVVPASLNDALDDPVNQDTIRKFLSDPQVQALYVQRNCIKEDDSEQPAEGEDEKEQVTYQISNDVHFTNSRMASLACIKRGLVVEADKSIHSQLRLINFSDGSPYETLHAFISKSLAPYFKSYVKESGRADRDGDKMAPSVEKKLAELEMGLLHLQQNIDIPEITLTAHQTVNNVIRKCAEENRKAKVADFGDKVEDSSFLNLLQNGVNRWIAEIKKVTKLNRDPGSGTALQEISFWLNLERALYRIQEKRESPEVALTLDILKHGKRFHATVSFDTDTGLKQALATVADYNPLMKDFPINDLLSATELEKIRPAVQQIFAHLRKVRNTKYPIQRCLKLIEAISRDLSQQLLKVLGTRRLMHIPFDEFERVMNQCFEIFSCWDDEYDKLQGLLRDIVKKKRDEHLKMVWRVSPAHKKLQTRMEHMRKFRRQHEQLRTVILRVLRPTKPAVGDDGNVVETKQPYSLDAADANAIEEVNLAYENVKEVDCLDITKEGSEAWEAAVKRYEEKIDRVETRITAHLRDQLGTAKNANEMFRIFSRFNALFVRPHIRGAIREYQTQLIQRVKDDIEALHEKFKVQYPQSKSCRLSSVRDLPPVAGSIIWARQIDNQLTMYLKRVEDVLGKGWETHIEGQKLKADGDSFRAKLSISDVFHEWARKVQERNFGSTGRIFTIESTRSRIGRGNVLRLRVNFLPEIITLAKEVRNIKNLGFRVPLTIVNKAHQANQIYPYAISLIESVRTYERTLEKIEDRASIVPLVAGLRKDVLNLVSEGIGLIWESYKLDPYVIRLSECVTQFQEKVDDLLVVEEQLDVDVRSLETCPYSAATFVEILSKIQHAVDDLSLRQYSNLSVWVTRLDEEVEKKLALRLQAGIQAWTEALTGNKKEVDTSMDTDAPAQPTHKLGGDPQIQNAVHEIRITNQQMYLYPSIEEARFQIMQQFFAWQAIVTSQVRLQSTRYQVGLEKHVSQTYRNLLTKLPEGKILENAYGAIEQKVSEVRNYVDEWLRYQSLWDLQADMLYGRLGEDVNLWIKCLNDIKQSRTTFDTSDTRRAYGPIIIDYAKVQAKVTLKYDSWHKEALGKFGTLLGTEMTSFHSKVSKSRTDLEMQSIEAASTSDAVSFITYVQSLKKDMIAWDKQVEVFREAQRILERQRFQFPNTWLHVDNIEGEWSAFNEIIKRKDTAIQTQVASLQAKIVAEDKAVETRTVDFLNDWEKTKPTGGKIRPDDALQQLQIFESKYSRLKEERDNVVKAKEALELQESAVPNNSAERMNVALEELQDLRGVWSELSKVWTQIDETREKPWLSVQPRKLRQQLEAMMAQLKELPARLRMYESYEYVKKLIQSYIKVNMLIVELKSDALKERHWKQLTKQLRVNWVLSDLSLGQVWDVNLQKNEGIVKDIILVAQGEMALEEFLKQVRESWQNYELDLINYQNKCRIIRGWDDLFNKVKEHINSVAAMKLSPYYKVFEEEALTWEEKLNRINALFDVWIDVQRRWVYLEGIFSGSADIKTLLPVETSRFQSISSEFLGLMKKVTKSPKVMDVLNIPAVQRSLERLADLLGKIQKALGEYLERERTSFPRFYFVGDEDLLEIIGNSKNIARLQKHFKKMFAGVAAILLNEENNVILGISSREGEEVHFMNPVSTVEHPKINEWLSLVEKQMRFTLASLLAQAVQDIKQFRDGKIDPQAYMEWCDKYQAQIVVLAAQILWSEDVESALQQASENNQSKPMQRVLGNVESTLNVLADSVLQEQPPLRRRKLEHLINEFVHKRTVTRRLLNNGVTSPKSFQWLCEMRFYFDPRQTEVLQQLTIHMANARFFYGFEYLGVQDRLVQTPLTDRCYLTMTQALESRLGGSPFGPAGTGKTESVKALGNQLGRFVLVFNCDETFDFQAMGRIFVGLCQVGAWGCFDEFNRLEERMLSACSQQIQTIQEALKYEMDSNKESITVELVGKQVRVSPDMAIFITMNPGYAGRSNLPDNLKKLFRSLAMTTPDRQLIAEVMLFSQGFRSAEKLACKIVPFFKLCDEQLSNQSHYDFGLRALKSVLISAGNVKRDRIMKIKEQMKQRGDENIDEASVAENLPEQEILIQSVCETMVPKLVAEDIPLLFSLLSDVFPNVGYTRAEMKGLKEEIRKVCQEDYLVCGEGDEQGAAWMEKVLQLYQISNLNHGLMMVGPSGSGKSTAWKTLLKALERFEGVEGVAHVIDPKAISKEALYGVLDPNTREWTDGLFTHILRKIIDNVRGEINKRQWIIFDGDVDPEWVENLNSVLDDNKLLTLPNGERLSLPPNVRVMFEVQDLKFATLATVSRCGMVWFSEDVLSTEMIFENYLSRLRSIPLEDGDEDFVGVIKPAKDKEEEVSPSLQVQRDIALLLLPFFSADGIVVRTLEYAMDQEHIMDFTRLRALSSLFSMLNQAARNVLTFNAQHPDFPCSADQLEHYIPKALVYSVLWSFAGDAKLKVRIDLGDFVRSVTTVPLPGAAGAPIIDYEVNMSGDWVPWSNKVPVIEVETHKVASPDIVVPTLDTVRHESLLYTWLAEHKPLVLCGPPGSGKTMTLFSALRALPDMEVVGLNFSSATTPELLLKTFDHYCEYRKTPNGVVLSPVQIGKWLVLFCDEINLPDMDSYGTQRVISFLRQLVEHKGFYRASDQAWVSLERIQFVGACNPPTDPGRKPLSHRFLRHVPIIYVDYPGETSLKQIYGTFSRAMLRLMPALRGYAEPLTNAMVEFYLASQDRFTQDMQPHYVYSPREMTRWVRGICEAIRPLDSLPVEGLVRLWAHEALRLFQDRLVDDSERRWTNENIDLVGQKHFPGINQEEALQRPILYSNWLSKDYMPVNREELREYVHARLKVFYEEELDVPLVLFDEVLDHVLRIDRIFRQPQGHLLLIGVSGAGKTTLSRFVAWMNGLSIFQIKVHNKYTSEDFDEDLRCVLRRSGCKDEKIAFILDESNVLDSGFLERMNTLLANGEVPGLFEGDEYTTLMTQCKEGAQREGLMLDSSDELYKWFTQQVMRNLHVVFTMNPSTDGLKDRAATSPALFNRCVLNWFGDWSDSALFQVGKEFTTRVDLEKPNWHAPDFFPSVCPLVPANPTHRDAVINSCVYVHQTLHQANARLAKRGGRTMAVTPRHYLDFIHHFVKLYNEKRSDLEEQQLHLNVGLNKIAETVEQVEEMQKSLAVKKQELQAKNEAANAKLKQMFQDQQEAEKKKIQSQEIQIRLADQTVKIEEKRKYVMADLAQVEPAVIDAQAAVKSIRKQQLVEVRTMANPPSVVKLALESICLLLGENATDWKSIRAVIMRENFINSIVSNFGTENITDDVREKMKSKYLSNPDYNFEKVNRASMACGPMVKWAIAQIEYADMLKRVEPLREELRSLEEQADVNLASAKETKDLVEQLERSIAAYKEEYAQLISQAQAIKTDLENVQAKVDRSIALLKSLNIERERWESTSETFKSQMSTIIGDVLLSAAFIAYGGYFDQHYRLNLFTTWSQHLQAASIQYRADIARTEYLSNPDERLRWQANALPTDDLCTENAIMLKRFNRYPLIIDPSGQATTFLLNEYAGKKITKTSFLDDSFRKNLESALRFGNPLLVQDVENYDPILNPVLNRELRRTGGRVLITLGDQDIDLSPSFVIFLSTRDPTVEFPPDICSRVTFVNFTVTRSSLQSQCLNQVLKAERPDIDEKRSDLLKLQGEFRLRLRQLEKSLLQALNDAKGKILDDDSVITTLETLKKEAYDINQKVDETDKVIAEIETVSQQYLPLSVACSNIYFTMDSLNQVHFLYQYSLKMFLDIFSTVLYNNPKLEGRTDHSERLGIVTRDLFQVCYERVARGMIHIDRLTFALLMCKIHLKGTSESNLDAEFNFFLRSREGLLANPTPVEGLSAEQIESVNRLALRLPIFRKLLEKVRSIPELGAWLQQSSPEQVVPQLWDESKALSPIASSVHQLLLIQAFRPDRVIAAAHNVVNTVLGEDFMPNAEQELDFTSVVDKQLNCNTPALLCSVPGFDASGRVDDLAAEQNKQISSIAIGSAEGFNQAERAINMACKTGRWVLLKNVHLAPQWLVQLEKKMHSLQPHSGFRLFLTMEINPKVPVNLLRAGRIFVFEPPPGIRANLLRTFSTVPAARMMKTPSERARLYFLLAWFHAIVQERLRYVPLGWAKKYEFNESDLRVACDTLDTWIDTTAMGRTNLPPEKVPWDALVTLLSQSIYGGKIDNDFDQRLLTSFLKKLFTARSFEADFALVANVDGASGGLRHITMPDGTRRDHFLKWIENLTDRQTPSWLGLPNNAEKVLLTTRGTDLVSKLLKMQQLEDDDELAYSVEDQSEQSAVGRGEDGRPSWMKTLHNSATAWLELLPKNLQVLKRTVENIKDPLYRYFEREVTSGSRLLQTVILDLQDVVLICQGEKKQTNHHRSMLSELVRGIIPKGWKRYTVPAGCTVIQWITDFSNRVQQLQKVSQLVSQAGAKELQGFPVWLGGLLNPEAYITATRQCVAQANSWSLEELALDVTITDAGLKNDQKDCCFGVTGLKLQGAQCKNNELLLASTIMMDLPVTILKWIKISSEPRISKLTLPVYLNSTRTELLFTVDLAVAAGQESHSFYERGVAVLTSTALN
UniProt Q02748: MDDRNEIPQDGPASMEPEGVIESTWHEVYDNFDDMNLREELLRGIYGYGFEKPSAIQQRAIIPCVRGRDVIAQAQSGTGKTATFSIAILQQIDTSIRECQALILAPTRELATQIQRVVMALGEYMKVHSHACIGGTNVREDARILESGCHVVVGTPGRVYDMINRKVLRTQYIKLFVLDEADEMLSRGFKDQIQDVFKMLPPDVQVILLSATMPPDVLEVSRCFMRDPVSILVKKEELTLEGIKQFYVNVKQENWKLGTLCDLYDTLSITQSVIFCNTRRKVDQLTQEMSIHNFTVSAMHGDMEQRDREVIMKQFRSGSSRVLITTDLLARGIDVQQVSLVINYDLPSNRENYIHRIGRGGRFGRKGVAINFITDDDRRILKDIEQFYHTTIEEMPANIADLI
UniProt P15007: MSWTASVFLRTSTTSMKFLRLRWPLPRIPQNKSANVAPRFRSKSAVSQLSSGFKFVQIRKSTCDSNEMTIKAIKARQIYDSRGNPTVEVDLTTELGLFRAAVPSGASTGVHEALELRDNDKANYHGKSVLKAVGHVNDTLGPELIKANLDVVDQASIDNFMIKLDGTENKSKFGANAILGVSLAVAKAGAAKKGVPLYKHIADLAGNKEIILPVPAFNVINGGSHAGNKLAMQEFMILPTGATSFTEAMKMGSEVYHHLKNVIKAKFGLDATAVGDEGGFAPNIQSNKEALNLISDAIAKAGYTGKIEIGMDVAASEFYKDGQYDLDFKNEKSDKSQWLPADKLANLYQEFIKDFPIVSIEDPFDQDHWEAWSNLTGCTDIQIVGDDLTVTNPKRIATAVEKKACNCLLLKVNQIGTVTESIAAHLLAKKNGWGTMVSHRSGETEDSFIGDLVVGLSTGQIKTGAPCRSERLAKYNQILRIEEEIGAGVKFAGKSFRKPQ

Legend:
[1] = biological target: T1, functional GFP-tagged Aubergine (Drosophila) (UniProt O76922); test: cross-linking + affinity purification with mass spectrometry; GFP-Aub-expressing embryo lysates crosslinked in vitro with BM(PEG)3 (300 ug/mL); immunoprecipitation in PBS with 0.5 M urea, 0.01% SDS, 2% Triton X-100, 10% glycerol; gel-purified; mass spectrometry
T1 sequence: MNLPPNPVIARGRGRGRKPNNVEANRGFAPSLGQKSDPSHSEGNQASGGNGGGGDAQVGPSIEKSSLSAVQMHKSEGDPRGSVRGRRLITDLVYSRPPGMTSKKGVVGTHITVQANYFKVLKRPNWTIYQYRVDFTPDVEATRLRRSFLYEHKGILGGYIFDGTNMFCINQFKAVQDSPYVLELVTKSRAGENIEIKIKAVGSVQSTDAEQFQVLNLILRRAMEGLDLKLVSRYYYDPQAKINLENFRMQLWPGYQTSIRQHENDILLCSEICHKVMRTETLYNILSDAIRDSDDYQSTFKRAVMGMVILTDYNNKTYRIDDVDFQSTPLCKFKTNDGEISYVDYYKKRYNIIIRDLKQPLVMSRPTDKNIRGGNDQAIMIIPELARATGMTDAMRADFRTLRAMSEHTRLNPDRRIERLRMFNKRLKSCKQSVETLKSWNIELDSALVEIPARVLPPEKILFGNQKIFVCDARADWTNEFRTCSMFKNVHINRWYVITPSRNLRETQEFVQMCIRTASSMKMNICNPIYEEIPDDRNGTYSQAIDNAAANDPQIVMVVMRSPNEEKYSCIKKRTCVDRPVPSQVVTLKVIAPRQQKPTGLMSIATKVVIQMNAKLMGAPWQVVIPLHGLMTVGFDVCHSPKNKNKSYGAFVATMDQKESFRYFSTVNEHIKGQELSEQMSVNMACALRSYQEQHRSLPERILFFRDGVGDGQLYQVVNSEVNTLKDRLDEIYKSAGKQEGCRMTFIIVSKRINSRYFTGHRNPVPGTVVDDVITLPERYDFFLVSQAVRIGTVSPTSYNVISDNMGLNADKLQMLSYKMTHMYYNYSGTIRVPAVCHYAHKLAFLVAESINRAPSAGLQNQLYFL

[2] = biological target: T1, functional GFP-tagged Aubergine (Drosophila); test: cross-linking + affinity purification with mass spectrometry; in vivo crosslinking of 0-1 h embryos expressing HA-Tud or GFP-Aub with 0.2% formaldehyde (10 min); immunoprecipitation on anti-HA or anti-GFP agarose beads in 0.5 M urea, 0.01% SDS, 2% Triton X-100; washes with 1 M NaCl, 1% IGEPAL …; crosslinked complexes purified on SDS/PAGE step gels; LC-MS/MS; HA-tagged GFP as negative control
[3] = biological target: functional full-length HA-tagged Tudor (Drosophila) (UniProt P25823); test: as above

Measured: binding

Pyruvate kinase (from UniProt O62619 1-533) (enzyme)
binds: all assays above

glyceraldehyde-3-phosphate dehydrogenase 2 (from UniProt P07487 1-332) (enzyme)
binds: all assays above

dynein heavy chain 64C (from UniProt P37276 1-4639)
binds: all assays above

kinesin heavy chain (from UniProt P17210 1-975)
binds: all assays above

eukaryotic translation initiation factor 4A (endogenous) (from UniProt Q02748 1-403) (enzyme)
binds: all assays above

Enolase (from UniProt P15007 1-500) (enzyme)
binds: all assays above

B1: maternal expression at 31B (enzyme, UniProt P23128 1-459)
chain: MMTEKLNSGHTNLTSKGIINDLQIAGNTSDDMGWKSKLKLPPKDNRFKTTDVTDTRGNEFEEFCLKRELLMGIFEKGWERPSPIQEAAIPIALSGKDVLARAKNGTGKTGAYCIPVLEQIDPTKDYIQALVMVPTRELALQTSQICIELAKHLDIRVMVTTGGTILKDDILRIYQKVQLIIATPGRILDLMDKKVADMSHCRILVLDEADKLLSLDFQGMLDHVILKLPKDPQILLFSATFPLTVKNFMEKHLREPYEINLMEELTLKGVTQYYAFVQERQKVHCLNTLFSKLQINQSIIFCNSTQRVELLAKKITELGYCCYYIHAKMAQAHRNRVFHDFRQGLCRNLVCSDLFTRGIDVQAVNVVINFDFPRMAETYLHRIGRSGRFGHLGIAINLITYEDRFDLHRIEKELGTEIKPIPKVIDPALYVANVGASVGDTCNNSDLNNSANEEGNVSK
binds: all assays above

These are yes or no findings as the source states them, for the method shown. In cells and extracts the contact can be indirect. These calls come from enrichment with a bait or labelling near it, and not all partners need be listed. For part of these data: Where a sequence is shown, tags or fusion partners need not be part of it.
